For 23 targets, log2 fold change results are on record in the supplement of paper PMC10849652.

The chains behind the UniProt entries cited, without tags or fusion partners. Where a name states a change or a piece, a line headed by the entry shows the natural chain unless it says otherwise.
UniProt Q8IV08: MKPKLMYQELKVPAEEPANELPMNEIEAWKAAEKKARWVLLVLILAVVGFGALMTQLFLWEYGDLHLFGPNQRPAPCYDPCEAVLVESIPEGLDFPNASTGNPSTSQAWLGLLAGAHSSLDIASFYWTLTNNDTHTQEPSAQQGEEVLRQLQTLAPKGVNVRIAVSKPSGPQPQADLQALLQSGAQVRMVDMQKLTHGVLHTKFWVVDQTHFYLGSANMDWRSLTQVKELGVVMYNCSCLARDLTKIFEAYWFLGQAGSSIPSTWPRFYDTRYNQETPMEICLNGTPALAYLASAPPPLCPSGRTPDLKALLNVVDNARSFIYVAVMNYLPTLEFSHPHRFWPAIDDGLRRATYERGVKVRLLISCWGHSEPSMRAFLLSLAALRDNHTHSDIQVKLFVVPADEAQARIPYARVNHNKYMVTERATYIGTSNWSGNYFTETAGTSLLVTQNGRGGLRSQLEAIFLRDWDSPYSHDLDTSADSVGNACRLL
UniProt Q7RTV0, whole entry, looked up: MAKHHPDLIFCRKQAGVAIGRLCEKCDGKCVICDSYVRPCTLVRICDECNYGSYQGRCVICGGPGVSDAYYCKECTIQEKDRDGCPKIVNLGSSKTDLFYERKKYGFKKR
UniProt Q8NEB9, whole entry, looked up: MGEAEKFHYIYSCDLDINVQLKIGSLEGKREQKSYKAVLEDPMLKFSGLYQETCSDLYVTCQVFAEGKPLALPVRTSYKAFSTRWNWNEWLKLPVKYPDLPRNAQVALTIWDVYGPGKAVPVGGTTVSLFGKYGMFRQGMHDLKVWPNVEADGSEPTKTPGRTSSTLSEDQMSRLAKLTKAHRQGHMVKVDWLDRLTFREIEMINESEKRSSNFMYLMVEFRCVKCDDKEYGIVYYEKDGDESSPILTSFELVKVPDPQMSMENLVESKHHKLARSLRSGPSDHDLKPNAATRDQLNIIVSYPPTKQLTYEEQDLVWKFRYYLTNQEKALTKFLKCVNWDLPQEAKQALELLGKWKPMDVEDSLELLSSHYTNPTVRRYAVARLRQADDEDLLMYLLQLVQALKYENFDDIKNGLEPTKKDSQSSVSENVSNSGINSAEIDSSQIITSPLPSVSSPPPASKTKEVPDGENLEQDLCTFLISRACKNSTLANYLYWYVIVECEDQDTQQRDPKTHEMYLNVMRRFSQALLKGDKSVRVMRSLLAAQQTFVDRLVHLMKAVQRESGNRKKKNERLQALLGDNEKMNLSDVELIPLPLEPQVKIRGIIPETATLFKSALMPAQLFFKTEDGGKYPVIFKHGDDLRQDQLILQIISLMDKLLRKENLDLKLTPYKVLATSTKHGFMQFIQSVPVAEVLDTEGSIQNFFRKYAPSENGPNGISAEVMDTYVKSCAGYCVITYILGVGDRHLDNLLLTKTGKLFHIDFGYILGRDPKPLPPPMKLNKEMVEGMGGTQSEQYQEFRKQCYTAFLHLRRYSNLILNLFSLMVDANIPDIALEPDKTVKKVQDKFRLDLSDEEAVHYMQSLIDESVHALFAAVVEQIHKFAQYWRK
UniProt Q8TBX8: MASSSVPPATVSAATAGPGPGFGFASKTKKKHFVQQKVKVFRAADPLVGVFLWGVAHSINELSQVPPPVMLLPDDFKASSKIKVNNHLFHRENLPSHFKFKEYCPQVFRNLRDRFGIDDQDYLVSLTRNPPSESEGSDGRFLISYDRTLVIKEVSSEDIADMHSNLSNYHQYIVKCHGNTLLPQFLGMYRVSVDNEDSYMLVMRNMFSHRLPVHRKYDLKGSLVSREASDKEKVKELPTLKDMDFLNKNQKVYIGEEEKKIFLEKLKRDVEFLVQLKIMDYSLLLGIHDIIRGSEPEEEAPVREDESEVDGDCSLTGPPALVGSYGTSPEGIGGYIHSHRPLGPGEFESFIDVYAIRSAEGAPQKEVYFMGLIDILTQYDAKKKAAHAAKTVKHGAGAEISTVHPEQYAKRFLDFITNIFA
UniProt O00628: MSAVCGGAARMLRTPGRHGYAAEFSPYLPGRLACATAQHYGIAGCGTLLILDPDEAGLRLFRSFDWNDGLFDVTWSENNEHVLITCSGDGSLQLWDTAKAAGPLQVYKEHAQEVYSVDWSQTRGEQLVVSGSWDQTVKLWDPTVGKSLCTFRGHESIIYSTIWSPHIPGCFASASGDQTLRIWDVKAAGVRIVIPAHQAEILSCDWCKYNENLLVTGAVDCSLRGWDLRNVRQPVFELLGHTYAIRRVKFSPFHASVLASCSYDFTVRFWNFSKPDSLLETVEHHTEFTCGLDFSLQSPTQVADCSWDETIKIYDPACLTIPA
UniProt Q9Y2I7: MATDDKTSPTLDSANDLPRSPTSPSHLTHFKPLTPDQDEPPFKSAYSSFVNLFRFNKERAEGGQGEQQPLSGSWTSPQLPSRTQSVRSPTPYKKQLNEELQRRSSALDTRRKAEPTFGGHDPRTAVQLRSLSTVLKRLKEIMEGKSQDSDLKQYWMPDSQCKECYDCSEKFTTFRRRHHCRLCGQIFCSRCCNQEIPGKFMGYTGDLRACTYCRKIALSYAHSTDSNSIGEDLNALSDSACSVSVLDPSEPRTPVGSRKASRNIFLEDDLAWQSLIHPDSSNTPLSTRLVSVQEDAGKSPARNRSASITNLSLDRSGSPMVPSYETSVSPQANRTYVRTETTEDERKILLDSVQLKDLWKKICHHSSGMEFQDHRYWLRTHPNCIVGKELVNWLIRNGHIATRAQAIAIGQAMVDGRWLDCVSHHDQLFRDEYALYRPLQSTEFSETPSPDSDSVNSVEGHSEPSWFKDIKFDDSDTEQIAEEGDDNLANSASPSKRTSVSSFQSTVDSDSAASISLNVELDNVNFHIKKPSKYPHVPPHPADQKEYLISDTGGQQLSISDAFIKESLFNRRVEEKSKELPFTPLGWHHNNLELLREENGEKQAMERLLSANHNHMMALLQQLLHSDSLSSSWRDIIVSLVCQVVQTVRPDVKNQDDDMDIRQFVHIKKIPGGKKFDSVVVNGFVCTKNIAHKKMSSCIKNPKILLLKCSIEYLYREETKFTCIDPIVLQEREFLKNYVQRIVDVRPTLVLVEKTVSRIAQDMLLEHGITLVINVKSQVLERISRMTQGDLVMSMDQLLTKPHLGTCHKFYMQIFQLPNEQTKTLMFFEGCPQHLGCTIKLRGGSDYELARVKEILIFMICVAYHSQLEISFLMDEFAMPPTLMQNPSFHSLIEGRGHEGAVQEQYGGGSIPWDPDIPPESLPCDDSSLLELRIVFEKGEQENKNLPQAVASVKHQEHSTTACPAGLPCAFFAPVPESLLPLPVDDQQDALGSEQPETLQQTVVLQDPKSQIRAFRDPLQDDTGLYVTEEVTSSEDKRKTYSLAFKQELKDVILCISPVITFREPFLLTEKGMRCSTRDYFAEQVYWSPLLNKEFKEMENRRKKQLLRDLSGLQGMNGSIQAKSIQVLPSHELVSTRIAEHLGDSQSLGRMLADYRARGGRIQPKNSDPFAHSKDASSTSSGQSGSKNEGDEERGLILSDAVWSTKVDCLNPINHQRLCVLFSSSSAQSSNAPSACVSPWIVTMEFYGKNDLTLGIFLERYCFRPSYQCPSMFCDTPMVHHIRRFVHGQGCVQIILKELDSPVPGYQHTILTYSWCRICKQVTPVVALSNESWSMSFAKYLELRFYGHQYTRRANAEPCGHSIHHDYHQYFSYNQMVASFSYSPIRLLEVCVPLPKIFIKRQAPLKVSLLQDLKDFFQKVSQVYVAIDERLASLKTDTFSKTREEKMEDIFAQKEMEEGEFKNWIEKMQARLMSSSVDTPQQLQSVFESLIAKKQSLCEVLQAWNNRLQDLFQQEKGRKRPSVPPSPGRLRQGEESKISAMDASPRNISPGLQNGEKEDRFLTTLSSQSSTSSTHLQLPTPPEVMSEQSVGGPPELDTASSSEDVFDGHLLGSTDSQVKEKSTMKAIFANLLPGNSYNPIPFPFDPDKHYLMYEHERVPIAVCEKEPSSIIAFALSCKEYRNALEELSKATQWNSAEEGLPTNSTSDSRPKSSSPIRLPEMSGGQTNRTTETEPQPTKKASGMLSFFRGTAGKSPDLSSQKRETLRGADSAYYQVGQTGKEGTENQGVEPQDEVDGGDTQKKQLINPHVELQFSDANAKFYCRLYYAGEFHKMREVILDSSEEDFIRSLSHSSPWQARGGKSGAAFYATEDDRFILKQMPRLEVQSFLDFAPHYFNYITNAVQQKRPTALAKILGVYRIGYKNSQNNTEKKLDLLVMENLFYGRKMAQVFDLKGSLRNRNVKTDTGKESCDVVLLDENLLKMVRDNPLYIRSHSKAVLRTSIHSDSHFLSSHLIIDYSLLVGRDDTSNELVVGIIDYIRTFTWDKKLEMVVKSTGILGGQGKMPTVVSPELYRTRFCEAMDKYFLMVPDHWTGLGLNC
UniProt P53609, whole entry, looked up: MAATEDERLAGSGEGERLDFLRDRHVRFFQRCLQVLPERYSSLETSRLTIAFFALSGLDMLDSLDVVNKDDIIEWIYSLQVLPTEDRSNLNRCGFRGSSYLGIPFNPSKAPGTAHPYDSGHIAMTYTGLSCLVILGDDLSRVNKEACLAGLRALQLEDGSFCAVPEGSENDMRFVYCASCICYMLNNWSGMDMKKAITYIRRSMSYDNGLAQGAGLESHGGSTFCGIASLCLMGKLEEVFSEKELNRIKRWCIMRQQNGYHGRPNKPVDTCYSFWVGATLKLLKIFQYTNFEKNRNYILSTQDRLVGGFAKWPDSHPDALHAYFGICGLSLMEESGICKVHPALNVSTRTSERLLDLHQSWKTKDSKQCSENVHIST
UniProt P46019: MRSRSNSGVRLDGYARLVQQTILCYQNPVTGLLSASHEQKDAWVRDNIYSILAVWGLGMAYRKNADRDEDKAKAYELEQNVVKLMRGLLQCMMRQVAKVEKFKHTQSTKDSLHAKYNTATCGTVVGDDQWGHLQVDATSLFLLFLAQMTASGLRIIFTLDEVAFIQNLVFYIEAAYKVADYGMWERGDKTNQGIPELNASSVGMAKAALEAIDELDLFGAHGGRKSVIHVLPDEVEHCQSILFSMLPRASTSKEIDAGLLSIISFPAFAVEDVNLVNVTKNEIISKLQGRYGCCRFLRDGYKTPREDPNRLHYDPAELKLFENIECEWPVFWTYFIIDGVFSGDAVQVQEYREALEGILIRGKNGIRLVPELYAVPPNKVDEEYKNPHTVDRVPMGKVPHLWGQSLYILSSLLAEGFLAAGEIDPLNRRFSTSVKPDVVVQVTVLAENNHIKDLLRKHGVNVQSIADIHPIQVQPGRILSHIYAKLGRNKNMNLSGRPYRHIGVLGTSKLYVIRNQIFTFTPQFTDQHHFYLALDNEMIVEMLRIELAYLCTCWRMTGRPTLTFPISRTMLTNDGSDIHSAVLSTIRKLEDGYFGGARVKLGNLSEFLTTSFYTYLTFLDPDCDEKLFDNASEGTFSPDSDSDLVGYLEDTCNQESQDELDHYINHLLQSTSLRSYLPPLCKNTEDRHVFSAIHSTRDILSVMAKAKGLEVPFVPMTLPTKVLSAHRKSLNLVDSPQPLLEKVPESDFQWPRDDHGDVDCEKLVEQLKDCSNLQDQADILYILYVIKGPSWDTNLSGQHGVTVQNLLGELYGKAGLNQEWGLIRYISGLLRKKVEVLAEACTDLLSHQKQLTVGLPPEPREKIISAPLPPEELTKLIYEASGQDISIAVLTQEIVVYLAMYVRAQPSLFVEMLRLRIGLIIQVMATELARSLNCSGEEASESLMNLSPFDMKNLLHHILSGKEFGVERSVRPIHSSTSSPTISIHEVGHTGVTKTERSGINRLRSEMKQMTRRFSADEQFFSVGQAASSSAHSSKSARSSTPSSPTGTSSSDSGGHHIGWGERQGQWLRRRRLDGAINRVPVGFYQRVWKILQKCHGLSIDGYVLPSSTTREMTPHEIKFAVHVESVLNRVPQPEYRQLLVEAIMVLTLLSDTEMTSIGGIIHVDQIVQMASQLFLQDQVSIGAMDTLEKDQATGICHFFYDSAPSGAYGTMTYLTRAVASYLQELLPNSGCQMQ
UniProt P78356: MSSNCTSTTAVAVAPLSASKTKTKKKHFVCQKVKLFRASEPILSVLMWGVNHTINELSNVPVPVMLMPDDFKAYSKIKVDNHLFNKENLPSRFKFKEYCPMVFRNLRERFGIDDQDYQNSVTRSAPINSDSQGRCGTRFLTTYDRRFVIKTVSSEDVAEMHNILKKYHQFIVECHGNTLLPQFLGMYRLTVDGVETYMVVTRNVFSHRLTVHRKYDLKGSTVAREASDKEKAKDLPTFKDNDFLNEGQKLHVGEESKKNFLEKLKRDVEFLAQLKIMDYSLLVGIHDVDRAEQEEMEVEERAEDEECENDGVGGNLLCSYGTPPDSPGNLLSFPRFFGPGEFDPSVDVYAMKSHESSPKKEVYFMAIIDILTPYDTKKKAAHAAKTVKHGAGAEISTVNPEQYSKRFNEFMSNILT

The list shows a part of the results.

Compound in the test: COC(=O)N[C@@H](C)CNc1nccc(-c2cn(C(C)C)nc2-c2cc(Cl)cc(NS(C)(=O)=O)c2F)n1 [encorafenib]
Briefly: log2 fold change, soluble protein after heating vs DMSO (PISA); higher = thermal stabilisation; K562 cells, 10 uM, 30 min; active = over 0.2 and 3.5 SD of the protein, either way, in both replicates (recomputed). Put shortly:
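Thermal stability values are relative to control samples and come from duplicates. They are expressed as log2 fold changes. For measurement, K562 cells (2×10^6 cells/mL) received 10 μM compound for 30 min, and aliquots were heated for 3 min over 48°C-58°C, pooled, and extracted at 4°C in PBS with 0.5% NP-40. Soluble protein, the supernatant after 21,000xg for 90 min, was quantified by TMTpro 16plex LC-MS/MS with equalised channel sums.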
On to PLD3 (UniProt Q8IV08), for which the log2 fold change is inactive: 0.007.
PHF5A (UniProt Q7RTV0): the log2 fold change is inactive: -0.017.
On to PLA2G15 (UniProt Q8NCC3), for which the log2 fold change is inactive: 0.176.
On to PIGT (UniProt Q969N2), for which the log2 fold change was inactive: 0.048.
The same measure for PISD (UniProt Q9UG56): inactive: 0.063; for PIK3C3 (UniProt Q8NEB9): inactive: 0.05; for PHF19 isoform 2 (UniProt Q5T6S3): inactive: 0.168.
Turning to PKM (UniProt P14618), the log2 fold change was inactive: -0.01.
In the case of PIP4K2C (UniProt Q8TBX8) it was inactive: 0.051; in that of PIK3R1 (UniProt P27986), inactive: 0.08; in that of PEX7 (UniProt O00628), inactive: -0.023.
On to PIP4K2A (UniProt P48426), for which the log2 fold change is inactive: 0.1.
For PHKA1 (UniProt P46020), the log2 fold change was inactive: -0.295.
PJA2 (UniProt O43164): the log2 fold change was inactive: -0.003.
PIKFYVE (UniProt Q9Y2I7): the log2 fold change is inactive: 0.099.
In the case of PI4K2B (UniProt Q8TCG2) it was inactive: -0.148.
In the case of PLCG1 isoform 2 (UniProt P19174) it was inactive: 0.012; in that of PGGT1B (UniProt P53609), inactive: 0.013.
PIR (UniProt O00625): the log2 fold change was inactive: -0.045.
As for PHKA2 (UniProt P46019), the log2 fold change is inactive: -0.022.
Regarding PIP4K2B (UniProt P78356), the log2 fold change is inactive: 0.049.
Turning to PLBD1 (UniProt Q6P4A8), the log2 fold change is inactive: 0.001.
For the target PLBD2 (UniProt Q8NHP8), the log2 fold change is inactive: 0.005.
